Results deposited as PubChem BioAssay AID1671195 (Yale University, 2021).
In all, the deposit lists about 22,000 reagents; this is a part drawn at random. In the full data, about 1,510 (6.9%) were called active. 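Active includes knockdowns raising or lowering LDL uptake; positive z-scores mean more uptake, negative mean less.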

- Aim: 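Knockdowns that increase or decrease uptake of fluorescent LDL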 (primary screen)
- Cells: human Huh7 hepatoma cells
- Reagent: siRNA pool against human genes, 18 nM
- Duration: about 2 to 2.5 days of knockdown, then 8 h LDL uptake
- Treatment: DiI-labelled LDL at 30 µg/ml for 8 h, in lipoprotein-deficient serum medium
- Detection: 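Fluorescent LDL signal imaged in cells, scaled to the plate median, robust z-score for each replicate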
- Scale: robust z-score: higher = more LDL uptake after knockdown
- Active means: 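Active when two or more replicates show a robust z-score above 2 or below -2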

| Gene | robust z-score, replicate 1 | robust z-score, replicate 2 | robust z-score, replicate 3 | activity call |
| --- | --- | --- | --- | --- |
| TMEM60 (GeneID 85025) | 0.284 | -0.244 | -0.493 | inactive |
| AFAP1L2 (GeneID 84632) | -0.713 | -0.211 | -0.223 | inactive |
| HSPA1L (GeneID 3305) | 3.22 | 2.96 | 3.12 | active |
| UBA2 (GeneID 10054) | -1.71 | -0.384 | -0.299 | inactive |
| LOC441580 (retired record) (GeneID 441580) | 1.22 | 0.148 | 0.289 | inactive |
| PRR23C (GeneID 389152) | -0.325 | -0.989 | -0.827 | inactive |
| RPLP1P3 (GeneID 127099) | 0.617 | 0.954 | 0.828 | inactive |
| HPCAL4 (GeneID 51440) | 0.259 | 0.316 | 0.601 | inactive |
| NDUFB8 (GeneID 4714) | 0.808 | 0.0698 | -0.138 | inactive |
| MON1B (GeneID 22879) | 0.617 | 0.635 | 1.12 | inactive |
| LINC00484 (GeneID 100129347) | -0.0805 | -0.191 | -0.212 | inactive |
| LRRC7 (GeneID 57554) | 0.367 | 0.246 | 3.38 | inactive |
| LOC389347 (retired record) (GeneID 389347) | -0.168 | -0.0425 | 0.342 | inactive |
| EID3 (GeneID 493861) | 0.438 | 0.624 | 0.0272 | inactive |
| MPC2 (GeneID 25874) | 1.27 | 1.86 | 1.15 | inactive |
| ATP5MG (GeneID 10632) | 2.32 | 1.87 | 2.17 | active |
| RUFY4 (GeneID 285180) | -0.459 | -0.388 | -0.528 | inactive |
| REPIN1 (GeneID 29803) | 1.57 | 1.46 | 0.708 | inactive |
| ACBD3 (GeneID 64746) | -0.671 | -0.792 | -1.74 | inactive |
| FCGR3A (GeneID 2214) | 0.0161 | 0.469 | 0.455 | inactive |
| CCDC40 (GeneID 55036) | -0.471 | 0.423 | -0.254 | inactive |
| RPS4X (GeneID 6191) | -1.21 | -0.534 | 0.367 | inactive |
| SLC13A1 (GeneID 6561) | -0.292 | -0.414 | -0.317 | inactive |
| OR6C2 (GeneID 341416) | 0.411 | 0.482 | 0.588 | inactive |
| C12orf42 (GeneID 374470) | -1.25 | -1.17 | -1.24 | inactive |
| LOC442057 (retired record) (GeneID 442057) | -1.22 | -0.459 | -0.728 | inactive |
| METTL21C (GeneID 196541) | 1.67 | 1.38 | 0.371 | inactive |
| SREK1 (GeneID 140890) | 0.399 | -0.135 | 0.636 | inactive |
| TMEM65 (GeneID 157378) | 0.0174 | 0.172 | -0.328 | inactive |
| LRTM3 (GeneID 643677) | -0.13 | -0.63 | 0.193 | inactive |
| ZFAT (GeneID 57623) | -0.591 | -1.19 | -1.11 | inactive |
| CUBN (GeneID 8029) | -1.77 | -2.25 | -2.16 | active |
| SP110 (GeneID 3431) | -0.864 | -1.15 | -0.604 | inactive |
| CDH13 (GeneID 1012) | 4.54 | 3.61 | 6.35 | active |
| SLC32A1 (GeneID 140679) | 0.858 | 0.0717 | 1.2 | inactive |
| OR3A3 (GeneID 8392) | -0.714 | -0.48 | -1.07 | inactive |
| CTBP1 (GeneID 1487) | -1.77 | -1.28 | -1.91 | inactive |
| STYK1 (GeneID 55359) | 0.406 | 0.227 | 0.89 | inactive |
| MRGPRX1 (GeneID 259249) | -0.263 | -0.0624 | -0.113 | inactive |
| TBC1D13 (GeneID 54662) | 0.244 | 1.2 | 0.226 | inactive |
| CHN1 (GeneID 1123) | 0.259 | 1.93 | 1.09 | inactive |
| LOC387974 (retired record) (GeneID 387974) | 1.18 | 1.02 | 0.913 | inactive |
| B3GALT5-AS1 (GeneID 114041) | -0.697 | -0.514 | -0.789 | inactive |
| ZFPM2 (GeneID 23414) | 0.192 | -0.0307 | 0.0828 | inactive |
| PPP1R37 (GeneID 284352) | -0.988 | -0.821 | -0.745 | inactive |
| C1QL1 (GeneID 10882) | 0.666 | 0.983 | 0.209 | inactive |

Only “robust z-score, replicate 2” (7 entries from above):
CTBP1 (GeneID 1487) = -1.28
STYK1 (GeneID 55359) = 0.227
MRGPRX1 (GeneID 259249) = -0.0624
TBC1D13 (GeneID 54662) = 1.2
CHN1 (GeneID 1123) = 1.93
LOC387974 (retired record) (GeneID 387974) = 1.02
B3GALT5-AS1 (GeneID 114041) = -0.514
